The list shows only some results of the screen, not a fair sample: it is rich in T/C values a quarter to a half above the control, in often repeated tests (any T/C) and in doses without a T/C. Other doses and runs of a compound stand elsewhere. T/C: endpoint of the treated group in % of that of the vehicle group. Some doses have a count of surviving animals in place of a T/C: the source files T/C as zero there, which appears to mark a toxic dose or a test without result, not a measured value. Some survivor counts are full or nearly so, which does not show that the dose was tolerated: the source hardly ever lists a survival T/C far under the control, and the zero likely stands for such cases as well. Survivors were counted at the toxicity check, usually on the fifth day, unless a day is given; later deaths do not show. Schedule codes are those of the source, read here as Q, the interval in days (D) or hours (H), X, the number of doses. Some schedules carry Z or #; the key to these is not given. Some doses were run more than once; the results are listed from low to high. For survival time, the PubChem record calls one and a half times the control and up active, and a quarter to a half above the control has no call in these data; cut-offs in other NCI protocols can differ. Some T/C values carry the count of animals alive at the toxicity check (mostly the fifth day); without a count, all were alive then.
System: CD2F1 mice, L1210 leukemia sc, survival T/C
Assay: NCI In Vivo Anticancer Drug Screen. Data for tumor model L1210 Leukemia (subcutaneous) in CD2F1 (CDF1) mice
Conditions: T/C endpoint: median survival time, higher T/C = longer survival
Procedure, shortened: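 Read-out: survival or tumor size. Value = treated (T) / vehicle control (C). Transplantable tumor in mice.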

[1] = dose: 8.4 mg/kg/injection, schedule: Q01DX Z (sc), vehicle: saline
[2] = dose: 500.0 mg/kg/injection, schedule: Q01DX Z (sc), vehicle: methylcellulose (MC)

COc1cccc2c1C(=O)c1c(O)c3c(c(O)c1C2=O)C[C@@](O)(C(C)=O)C[C@@H]3OC1CC(N)C(O)C(C)O1 (stereo partly drawn)
survivor count (dose: 3.0 mg/kg/injection, schedule: Q01DX Z (sc), vehicle: saline): 3 of 8
survivor count (dose: 3.0 mg/kg/injection, schedule: Q01DX Z (sc), vehicle: water): 3 of 8
survivor count (dose: 4.0 mg/kg/injection, schedule: Q01DX009 (ip), vehicle: saline): 9 of 10
survivor count (dose: 4.0 mg/kg/injection, schedule: Q01DX009 (sc), vehicle: saline): 2 of 10
survivor count (dose: 5.0 mg/kg/injection, schedule: Q01DX Z (sc), vehicle: saline): 5 of 8
survivor count (dose: 5.0 mg/kg/injection, schedule: Q01DX Z (sc), vehicle: water): 3 of 8
survivor count (dose: 8.0 mg/kg/injection, schedule: Q01DX009 (sc), vehicle: saline): 5 of 10
survivor count [1]: 5 of 8
survivor count (dose: 8.4 mg/kg/injection, schedule: Q01DX Z (sc), vehicle: water): 4 of 8
T/C (dose: 14.0 mg/kg/injection, schedule: Q01DX Z (sc), vehicle: saline): 130 % of control [7 of 8 alive]
T/C (dose: 14.0 mg/kg/injection, schedule: Q01DX Z (sc), vehicle: water): 125 % of control [6 of 8 alive]
T/C (dose: 23.0 mg/kg/injection, schedule: Q01DX Z (sc), vehicle: saline): 125 % of control [7 of 8 alive]
survivor count (dose: 32.0 mg/kg/injection, schedule: Q01DX009 (sc), vehicle: saline): 6 of 10

CSc1nc2[nH]cnc(=S)c2[nH]1
survivor count [2]: 2 of 10

O=S1(=O)CS(=O)(=O)OCCO1
T/C (dose: 6.25 mg/kg/injection, schedule: Q01DX009 (ip), vehicle: Klucel (hydroxypropylcellulose) (HPC)): 131 % of control
T/C (dose: 12.5 mg/kg/injection, schedule: Q01DX009 (ip), vehicle: Klucel (hydroxypropylcellulose) (HPC)): 147 % of control
survivor count (dose: 100.0 mg/kg/injection, schedule: Q01DX009 (ip), vehicle: Klucel (hydroxypropylcellulose) (HPC)): 0 of 6

O=C(CCBr)N1CCN(C(=O)CCBr)CC1
T/C (dose: 130.0 mg/kg/injection, schedule: Q01DX Z (sc), vehicle: methylcellulose (MC)): 133 % of control
T/C (dose: 216.0 mg/kg/injection, schedule: Q01DX Z (sc), vehicle: methylcellulose (MC)): 133 % of control

OC(CBr)C(O)C(O)C(O)CBr (stereo not drawn)
survivor count (dose: 65.0 mg/kg/injection, schedule: Q01DX Z (sc), vehicle: carboxymethylcellulose (CMC)): 5 of 8
survivor count (dose: 80.0 mg/kg/injection, schedule: Q01DX009 (sc), vehicle: saline with Tween-80): 4 of 10
T/C (dose: 160.0 mg/kg/injection, schedule: Q01DX009 (ip), vehicle: saline): 125 % of control
survivor count (dose: 180.0 mg/kg/injection, schedule: Q01DX Z (sc), vehicle: carboxymethylcellulose (CMC)): 4 of 8
T/C (dose: 320.0 mg/kg/injection, schedule: Q01DX009 (ip), vehicle: saline with Tween-80): 134 % of control
T/C (dose: 320.0 mg/kg/injection, schedule: Q01DX009 (ip), vehicle: saline): 145 % of control
T/C (dose: 320.0 mg/kg/injection, schedule: Q01DX009 (sc), vehicle: saline + alcohol): 131 % of control [9 of 10 alive]
T/C (dose: 640.0 mg/kg/injection, schedule: Q01DX009 (ip), vehicle: saline): 145 % of control [9 of 10 alive]
survivor count (dose: 640.0 mg/kg/injection, schedule: Q01DX009 (sc), vehicle: saline + alcohol): 10 of 10

CS(=O)(=O)CS(=O)(=O)OCCCl
T/C (dose: 12.5 mg/kg/injection, schedule: Q01DX005 (ip), vehicle: other): 127 % of control
T/C (dose: 16.8 mg/kg/injection, schedule: Q01DX009 (ip), vehicle: dextrose): 127 % of control
T/C (dose: 24.0 mg/kg/injection, schedule: Q01DX005 (ip), vehicle: dextrose): 148 % of control
T/C (dose: 25.0 mg/kg/injection, schedule: Q01DX005 (ip), vehicle: other): 137 % of control
T/C (dose: 25.0 mg/kg/injection, schedule: Q01DX005 (iv), vehicle: other): 148 % of control
T/C (dose: 34.3 mg/kg/injection, schedule: Q01DX001 (ip), vehicle: dextrose): 133 % of control
T/C (dose: 34.3 mg/kg/injection, schedule: Q01DX002 (ip), vehicle: dextrose): 144 % of control
T/C (dose: 50.0 mg/kg/injection, schedule: Q01DX001 (ip), vehicle: other): 138 % of control
T/C (dose: 50.0 mg/kg/injection, schedule: Q01DX001 (iv), vehicle: other): 145 % of control
T/C (dose: 100.0 mg/kg/injection, schedule: Q01DX001 (oral), vehicle: other): 138 % of control
survivor count (dose: 100.0 mg/kg/injection, schedule: Q01DX009 (ip), vehicle: saline with Tween-80): 3 of 6
survivor count (dose: 200.0 mg/kg/injection, schedule: Q01DX001 (ip), vehicle: other): 0 of 10 on day 7
survivor count (dose: 200.0 mg/kg/injection, schedule: Q01DX005 (ip), vehicle: other): 0 of 10 on day 7
survivor count (dose: 200.0 mg/kg/injection, schedule: Q01DX009 (ip), vehicle: other): 2 of 10 on day 7
survivor count (dose: 200.0 mg/kg/injection, schedule: Q04DX003 (ip), vehicle: other): 0 of 10 on day 7
survivor count (dose: 400.0 mg/kg/injection, schedule: Q01DX001 (ip), vehicle: other): 0 of 10 on day 7
survivor count (dose: 400.0 mg/kg/injection, schedule: Q01DX001 (oral), vehicle: other): 0 of 10 on day 7
survivor count (dose: 400.0 mg/kg/injection, schedule: Q01DX009 (oral), vehicle: other): 0 of 10 on day 7
survivor count (dose: 800.0 mg/kg/injection, schedule: Q01DX001 (oral), vehicle: other): 0 of 10 on day 7
survivor count (dose: 800.0 mg/kg/injection, schedule: Q01DX009 (oral), vehicle: other): 0 of 10 on day 7

Cc1ccc(NCCN(C)C)c2c(=O)c3cc(O)ccc3sc12
T/C (dose: 50.0 mg/kg/injection, schedule: Q01DX009 (ip), vehicle: Klucel (hydroxypropylcellulose) (HPC)): 141 % of control
survivor count (dose: 200.0 mg/kg/injection, schedule: Q01DX009 (ip), vehicle: Klucel (hydroxypropylcellulose) (HPC)): 2 of 6 and 4 of 6

CSCS(=O)C[C@H](CO)NC(=O)/C=C/c1c(C)[nH]c(=O)[nH]c1=O (stereo partly drawn)
survivor count [1]: 0 of 8

CCCCn1cnc2c(=S)nc[nH]c21
survivor count (dose: 23.0 mg/kg/injection, schedule: Q01DX Z (sc), vehicle: methylcellulose (MC)): 4 of 10
survivor count (dose: 39.0 mg/kg/injection, schedule: Q01DX Z (sc), vehicle: methylcellulose (MC)): 5 of 10
survivor count (dose: 65.0 mg/kg/injection, schedule: Q01DX Z (sc), vehicle: methylcellulose (MC)): 3 of 10
survivor count (dose: 108.0 mg/kg/injection, schedule: Q01DX Z (sc), vehicle: methylcellulose (MC)): 2 of 10
survivor count (dose: 180.0 mg/kg/injection, schedule: Q01DX Z (sc), vehicle: methylcellulose (MC)): 3 of 10
survivor count (dose: 300.0 mg/kg/injection, schedule: Q01DX Z (sc), vehicle: methylcellulose (MC)): 3 of 10
survivor count [2]: 4 of 10

CN(C)CCN1C(=O)c2cccc3cc(N)cc(c23)C1=O
T/C (dose: 10.0 mg/kg/injection, schedule: Q01DX009 (ip), vehicle: acid diluted with saline): 125 and 136 % of control
T/C (dose: 16.0 mg/kg/injection, schedule: Q01DX009 (ip), vehicle: acid diluted with saline): 144 % of control
T/C (dose: 24.0 mg/kg/injection, schedule: Q01DX009 (ip), vehicle: acid diluted with saline): 125 and 132 % of control

CCN(CC)CCNc1ccc(C)c2sc3ccccc3c(=O)c12
T/C (dose: 50.0 mg/kg/injection, schedule: Q01DX009 (ip), vehicle: saline): 129 % of control
survivor count (dose: 400.0 mg/kg/injection, schedule: Q01DX009 (ip), vehicle: saline): 2 of 10
